## Drug screen on melanoma cell lines: cell count

From a melanoma drug combination screen (doi:10.1371/journal.pone.0140310); values rounded.

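Human melanoma cells were exposed to a pair of drugs for 72 h in 1,536-well plates and read by automated microscopy after fixing and staining. Each value is the count of nuclei relative to DMSO-treated wells, in %, so that 100 equals the control. Every drug was used at one fixed concentration, the lower of two screened (a fifth of the higher). These are primary screening values without error estimates.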
Only some of the drugs and lines screened are listed, without regard to their results.

All values are for the listed drug together with nilotinib (200 nM): Cc1cn(-c2cc(NC(=O)c3ccc(C)c(Nc4nccc(-c5cccnc5)n4)c3)cc(C(F)(F)F)c2)cn1

- COc1ccc(C2=N[C@@H](c3ccc(Cl)cc3)[C@@H](c3ccc(Cl)cc3)N2C(=O)N2CCNC(=O)C2)c(OC(C)C)c1 at 100 nM : C32: 106; G-361: 106
- CC(C)CCN1c2nc(Nc3cc(F)c(O)c(F)c3)ncc2N(C)C(=O)C1C (stereo not shown) at 200 nM : C32: 100; G-361: 111
- O=C1NC(=O)/C(=C/c2ccc(-c3ccc(F)cc3O)o2)S1 at 1000 nM : C32: 92.6; G-361: 88.0
- O=C(Nc1cccc(Cl)c1)Nc1ncc(CCNc2ncnc3ccsc23)s1 at 0.8 nM : C32: 92.7; G-361: 84.7
- CS(=O)(=O)CCNCc1ccc(-c2ccc3ncnc(Nc4ccc(OCc5cccc(F)c5)c(Cl)c4)c3c2)o1 at 800 nM : C32: 114; G-361: 102
- CCCCCCCCc1ccc(CCC(N)(CO)CO)cc1 at 2000 nM : C32: 96.8; G-361: 90.6
- CC(C)(C)c1cnc(CSc2cnc(NC(=O)C3CCNCC3)s2)o1 at 10 nM : C32: 103; G-361: 114
- O=C(/C=C/c1cccnc1)NCCCCC1CCN(C(=O)c2ccccc2)CC1 at 10 nM : C32: 90.8; G-361: 6.9
- Cc1nc(Nc2ncc(C(=O)Nc3c(C)cccc3Cl)s2)cc(N2CCN(CCO)CC2)n1 at 4 nM : C32: 84.2; G-361: 77.5
- CC[C@]1(O)C[C@H]2CN(CCc3c([nH]c4ccccc34)[C@@](C(=O)OC)(c3cc4c(cc3OC)N(C=O)[C@H]3[C@@](O)(C(=O)OC)[C@H](OC(C)=O)[C@]5(CC)C=CCN6CC[C@]43[C@@H]65)C2)C1 at 0.1 nM : C32: 79.3; G-361: 99.4
- Cc1cc([N+](=O)[O-])ccc1NS(=O)(=O)c1cc(Cl)ccc1Cl at 1000 nM : C32: 102; G-361: 91.0
- NC1(c2ccc(-c3nc4ccn5c(=O)[nH]nc5c4cc3-c3ccccc3)cc2)CCC1 at 400 nM : C32: 91.8; G-361: 109
- CCc1ccc(CCOc2ccc(CC3SC(=O)NC3=O)cc2)nc1 (stereo not shown) at 2000 nM : C32: 89.1; G-361: 108
- Cn1cc(/C=C2\C(=O)Nc3cccnc32)c2ccccc21 at 400 nM : C32: 89.3; G-361: 94.4
- Cc1cc(N2CCOCC2)cc2[nH]c(-c3c(NC[C@@H](O)c4cccc(Cl)c4)cc[nH]c3=O)nc12 at 200 nM : C32: 74.9; G-361: 86.0
- CN(C)S(=O)(=O)c1ccc2c(c1)/C(=C/c1cc3c([nH]1)CCCC3)C(=O)N2 at 400 nM : C32: 82.1; G-361: 91.5
- O=C(O)c1ccc(-c2c[nH]c3ncc(-c4ccccc4)cc23)cc1C1CCCC1 at 160 nM : C32: 90.6; G-361: 107
- CCCCCCCCCCCCCCCCCCOP(=O)([O-])OC1CC[N+](C)(C)CC1 at 400 nM : C32: 93.0; G-361: 90.6
- CN1CCN(c2ccc3nc(-c4c(N)c5c(F)cccc5[nH]c4=O)[nH]c3c2)CC1 at 100 nM : C32: 116; G-361: 103
- NC(=O)Nc1cc(-c2cccc(F)c2)sc1C(=O)N[C@H]1CCCNC1 at 20 nM : C32: 92.4; G-361: 107
- C[As](C)SC[C@H](NC(=O)CC[C@H](N)C(=O)O)C(=O)NCC(=O)O at 400 nM : C32: 93.1; G-361: 85.8
- O=C(CCCCCCC(=O)Nc1ccccc1)NO at 80 nM : C32: 106; G-361: 78.9
- COc1ccc(COc2ccc(Cc3cnc(N)nc3N)cc2OC)cc1 at 1000 nM : C32: 87.7; G-361: 106
- COc1ccc(-c2ccc3c(N4CCOCC4)nc(N4C[C@@H](C)O[C@@H](C)C4)nc3n2)cc1CO at 20 nM : C32: 85.1; G-361: 97.1

Once more, the final 2:

- COc1ccc(COc2ccc(Cc3cnc(N)nc3N)cc2OC)cc1 at 1000 nM | C32: 87.7; G-361: 106
- COc1ccc(-c2ccc3c(N4CCOCC4)nc(N4C[C@@H](C)O[C@@H](C)C4)nc3n2)cc1CO at 20 nM | C32: 85.1; G-361: 97.1